Data as given in PubChem BioAssay AID504784 (Drosophila RNAi Screening Center, 2011)
In all, the deposit lists about 17,000 reagents; below is an unselected part of those that have a named target and a result. 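Each column is one replicate's B-score; the combined score over replicates was not deposited, so single values may mislead.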 Reagents against one gene are numbered here. Not all columns of the deposit are shown.

Assay: 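Search for regulators of lipid droplet storage in oleate-fed fly cells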 (primary screen)
System: Drosophila Kc167 embryonic cells
Knock-down reagent: long dsRNA against Drosophila genes, about 250 ng dsRNA per well
Time to read-out: 4 days
Challenge: cells fed 400 µM oleic acid bound to BSA
Detection: 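Microscope images give a droplet-to-nucleus area ratio, taken as log and converted to a screen-wide B-score; higher values mean greater lipid storage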
Direction: droplet/nuclear area B-score: higher = more stored lipid (overstorage)

thoc6 — droplet/nuclear area B-score, replicate 1: 1.29
CG12716 — droplet/nuclear area B-score, replicate 1: -2.79
CG1523 — droplet/nuclear area B-score, replicate 1: 1.28
GCC88 — droplet/nuclear area B-score, replicate 1: -0.407
CG10814 — droplet/nuclear area B-score, replicate 1: -0.6
CG12420 — droplet/nuclear area B-score, replicate 1: 0.0274
CG18538 — droplet/nuclear area B-score, replicate 1: -1.86
vig #1 — droplet/nuclear area B-score, replicate 1: 0.266
vig #2 — droplet/nuclear area B-score, replicate 1: 0.0018
vig #3 — droplet/nuclear area B-score, replicate 1: -1.42
UQCR-14L #1 — droplet/nuclear area B-score, replicate 1: -0.105
UQCR-14L #2 — droplet/nuclear area B-score, replicate 1: -0.884
CG17717 — droplet/nuclear area B-score, replicate 1: -1.55
CG3817 — droplet/nuclear area B-score, replicate 1: 1.07
lds — droplet/nuclear area B-score, replicate 1: -1.75
CG10516 — droplet/nuclear area B-score, replicate 1: 0.196
PolD2 — droplet/nuclear area B-score, replicate 1: -0.175
CG15459 #1 — droplet/nuclear area B-score, replicate 1: 0.00784
CG15459 #2 — droplet/nuclear area B-score, replicate 1: 0.974
Ir48a — droplet/nuclear area B-score, replicate 1: -0.033
CG30393 — droplet/nuclear area B-score, replicate 1: -0.704

As entered above.
For “droplet/nuclear area B-score, replicate 1”, vig #1 reads 0.266
Entry for lds in “droplet/nuclear area B-score, replicate 1”: -1.75
Result of vig #3 under “droplet/nuclear area B-score, replicate 1”: -1.42
For “droplet/nuclear area B-score, replicate 1”, CG15459 #2 shows 0.974
Entry for CG1523 in “droplet/nuclear area B-score, replicate 1”: 1.28
For “droplet/nuclear area B-score, replicate 1”, CG17717 is entered as -1.55

The results go on:
Poxm #1 — droplet/nuclear area B-score, replicate 1: 0.23
Poxm #2 — droplet/nuclear area B-score, replicate 1: -0.449
dpr15 #1 — droplet/nuclear area B-score, replicate 1: -0.617
dpr15 #2 — droplet/nuclear area B-score, replicate 1: 0.852
dpr15 #3 — droplet/nuclear area B-score, replicate 1: -0.225
CG13627 — droplet/nuclear area B-score, replicate 1: 1.12
rl #1 — droplet/nuclear area B-score, replicate 1: -0.11
rl #2 — droplet/nuclear area B-score, replicate 1: 0.118
rl #3 — droplet/nuclear area B-score, replicate 1: 0.695
Cyp4c3 — droplet/nuclear area B-score, replicate 1: -1.2
CG6283 — droplet/nuclear area B-score, replicate 1: -0.0019
CG15478 — droplet/nuclear area B-score, replicate 1: 0.369
IntS2 — droplet/nuclear area B-score, replicate 1: 2.47
CG33490 — droplet/nuclear area B-score, replicate 1: 0.0598
ppan — droplet/nuclear area B-score, replicate 1: 0.657
CG31636 — droplet/nuclear area B-score, replicate 1: -1.73
Pcyt2 — droplet/nuclear area B-score, replicate 1: -2.74
spidey — droplet/nuclear area B-score, replicate 1: 0.886
beat-Vb #1 — droplet/nuclear area B-score, replicate 1: 2.09
beat-Vb #2 — droplet/nuclear area B-score, replicate 1: 0.00721
beat-Vb #3 — droplet/nuclear area B-score, replicate 1: 0.0473
